Experimental data published in US20190031615A1, “3-ETHYL-3-PHENYLAZEPANE DERIVATIVES HAVING MULTIMODAL ACTIVITY AGAINST PAIN” (LABORATORIOS DEL DR. ESTEVE S.A., priority 2016, published 2019).
At least one structure is not confirmed: it was looked up by name or label, or the drawing left a doubt.

Target: σ1 receptor and μ-opioid receptor
Test: Human σ1 receptor and human μ-opioid receptor radioligand assays (dual binding scale)
Design: key to μ and σ1 dual binding: +: Both Ki-μ and Ki-σ1>=500 nM; ++: One Ki <500 nM while the other Ki is >=500 nM; +++: Both Ki-μ and Ki-σ1 <500 nM; ++++: Both Ki-μ and Ki-σ1 <100 nM
Settings: joint class for both Ki; σ1: [3H](+)-pentazocine, transfected HEK-293 membranes; μ: [3H]-DAMGO, transfected CHO-K1 cell membranes
Protocol: To investigate binding properties of test compounds to human […] receptor, transfected HEK-293 membranes and [^3H](+)-pentazocine (Perkin Elmer, NET-1056), as the radioligand, were used. The assay was carried out with 7 μg of membrane suspension, 5 nM of [^3H](+)-pentazocine in either absence or presence of either buffer or 10 μM Haloperidol for total and non-specific binding, respectively. Binding buffer contained Tris-HCl 50 mM at pH 8. Plates were incubated at 37° C. for 120 minutes. After the incubation period, the reaction mix was then transferred to MultiScreen HTS, FC plates (Millipore), filtered and plates were washed 3 times with ice-cold 10 mM Tris-HCL (pH7.4). Filters were dried and counted at approximately 40% efficiency in a MicroBeta scintillation counter (Perkin-Elmer) using EcoScint liquid scintillation cocktail
To investigate binding properties of test compounds to human μ-opioid receptor, transfected CHO-K1 cell membranes and [^3H]-DAMGO (Perkin Elmer, ES-542-C), as the radioligand, were used. The assay was carried out with 20 μg of membrane suspension, 1 nM of [^3H]-DAMGO in either absence or presence of either buffer or 10 μM Naloxone for total and non-specific binding, respectively. […] Filters were dried and counted at approximately 40% efficiency in a MicroBeta scintillation counter (Perkin-Elmer) using EcoScint liquid scintillation cocktail.

SMILES | Ki [nM] | μ and σ1 dual binding
CCC1(c2cccc(OC)c2)CCCCN(CCN2CCN(c3ccccc3)CC2)C1 (centres unmarked) [Example 2, 3-ethyl-3-(3-methoxyphenyl)-1-(2-(4-phenylpiperazin-1-yl)ethyl)azepane] | < 500 | 
CCC1(c2cccc(O)c2)CCCCN(CC(=O)N(C)C)C1 (centres unmarked) [Example 15, 2-(3-ethyl-3-(3-hydroxyphenyl)azepan-1-yl)-N,N-dimethylacetamide] |  | ++
